Results as given in the supplement of paper PMC9578143, “Small-Molecule Ebselen Binds to YTHDF Proteins Interfering with the Recognition of N^6-Methyladenosine-Modified RNAs” (ACS Pharmacology & Translational Science, 2022).
Some of the results follow. Part of the spread comes from offsets between plates or batches.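 Hits were defined as a z-score below −3.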

The molecules below were run against T1, YTHDF1 YTH domain (aa 365-554) (UniProt Q9BYJ9) (assay: tryptophan fluorescence intensity z-score (mean); higher = higher fluorescence, less quenching (negative = binding / quenching)). Details: 10 µM.
T1 sequence (whole entry): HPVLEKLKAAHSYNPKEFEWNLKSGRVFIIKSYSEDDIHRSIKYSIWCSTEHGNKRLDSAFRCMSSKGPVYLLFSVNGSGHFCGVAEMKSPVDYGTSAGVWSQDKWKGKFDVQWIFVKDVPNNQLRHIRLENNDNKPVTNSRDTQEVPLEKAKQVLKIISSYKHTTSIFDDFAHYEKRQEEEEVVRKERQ

Tryptophan fluorescence intensity z-score, inactive:
COC(=O)C[C@H]1C(C)(C)[C@@H](OC(C)=O)[C@@H]2CC3=C4CC(=O)O[C@@H](c5ccoc5)[C@]4(C)CC[C@@H]3[C@@]1(C)C2=O (plate: M 13-14) 0.633
CC(=O)O[C@@H]1C[C@@]2(C)C(CC[C@@H]2C(C)=O)C2CCC3=CC(=O)CC[C@]3(C)C21 (stereo partly specified) (plate: M 19-20) 0.335
CCOC(=O)CCC(=O)O[C@H]1[C@H](O[C@@H]2[C@@H](C)[C@H](O[C@H]3C[C@@](C)(OC)[C@@H](O)[C@H](C)O3)[C@@H](C)C(=O)O[C@H](CC)[C@@](C)(O)[C@H](O)[C@@H](C)C(=O)[C@H](C)C[C@@]2(C)O)O[C@H](C)C[C@@H]1N(C)C (plate: M 3-4) -0.22
C[C@]12C=CC(=O)C=C1CC[C@@H]1[C@@H]2C(=O)C[C@@]2(C)[C@H]1CC[C@]2(O)C(=O)CO (plate: M 5-6) -0.0248
CC1(C)[C@@H](O[C@H]2O[C@H](C(=O)O)[C@@H](O)[C@H](O)[C@H]2O[C@@H]2O[C@H](C(=O)O)[C@@H](O)[C@H](O)[C@H]2O)CC[C@]2(C)[C@H]3C(=O)C=C4[C@@H]5C[C@@](C)(C(=O)O)CC[C@]5(C)CC[C@@]4(C)[C@]3(C)CC[C@@H]12 (plate: M 21-22) 0.46
CNC(=C[N+](=O)[O-])NCCSCc1csc(CN(C)C)n1 (plate: M 13-14) 0.329
O=C(O)C1=CCNCC1 (plate: M 21-22) -0.324
CCn1cc(C(=O)O)c(=O)c2cc(F)c(N3CCNC(C)C3)c(F)c21 (stereo unspecified) (plate: M 7-8) 0.142
CS(=O)(=O)Nc1ccc([N+](=O)[O-])cc1Oc1ccccc1 (plate: M 21-22) 0.546
CCCCC(=O)Oc1ccccc1C(=O)O (plate: M 23-24) 0.296
CCn1cc(C(=O)O)c(=O)c2cc(F)c(N3CCN(C)CC3)cc21 (plate: M 9-10) -0.0751
C[C@@H]1O[C@@H]1P(=O)(O)O (plate: M 13-14) 0.467
Cc1ccc(C(C)C)cc2c(C)ccc1-2 (plate: M 19-20) 0.501
CN1CCN(C(c2ccccc2)c2ccc(Cl)cc2)CC1 (stereo unspecified) (plate: M 1-2) 0.417
CC(=O)Nc1ccc(S(=O)(=O)Nc2ccc([N+](=O)[O-])cc2)cc1 (plate: M 13-14) 0.393
Cc1ccc(C(=O)Nc2ccc(S(=O)(=O)O)c3cc(S(=O)(=O)O)cc(S(=O)(=O)O)c23)cc1NC(=O)c1cccc(NC(=O)Nc2cccc(C(=O)Nc3cc(C(=O)Nc4ccc(S(=O)(=O)O)c5cc(S(=O)(=O)O)cc(S(=O)(=O)O)c45)ccc3C)c2)c1 (plate: M 7-8) -1.13
CC(=O)Nc1c(I)c(NC(C)=O)c(I)c(C(=O)O)c1I (plate: M 13-14) 0.374
CCc1cc(C(N)=S)ccn1 (plate: M 3-4) -0.907
CC(=O)O[C@H]1CC[C@]2(C)[C@H]3CC[C@@]4(C)[C@H](c5ccoc5)OC(=O)[C@H]5O[C@]54[C@]3(C)[C@H](OC(C)=O)C[C@H]2C1(C)C [3beta-ACETOXYDEOXODIHYDROGEDUNIN] (plate: M 13-14) 0.269
Cc1ccc2c(c1)CC[C@H]1CC(=O)CC[C@]21C (plate: M 15-16) 0.738
CNCCC=C1c2ccccc2CCc2ccccc21 (plate: M 3-4) -0.72
OC[C@H]1O[C@@H](OCCc2ccc(O)cc2)[C@H](O)[C@@H](O)[C@@H]1O (plate: M 21-22) 0.592
COc1ccc(C2CC(=O)c3ccc(OC)cc3O2)cc1 (stereo unspecified) (plate: M 21-22) -0.7
C[C@H]1[C@H](NC(=O)/C(=N\OC(C)(C)C(=O)O)c2csc(N)n2)C(=O)N1S(=O)(=O)O (plate: M 9-10) -0.41
Cc1ccc(/C(=C\CN2CCCC2)c2ccccn2)cc1 (plate: M 5-6) -0.191
CC(C)(O/N=C(\C(=O)N[C@@H]1C(=O)N2C(C(=O)[O-])=C(C[n+]3ccccc3)CS[C@H]12)c1csc(N)n1)C(=O)O (plate: M 11-12) -0.352
COC1=C(O)C(=O)c2c(cc3oc(C(C)=O)c(O)c3c2O)C1=O (plate: M 19-20) 0.39
CCCc1cc(OC)c2c(c1)OCO2 (plate: M 19-20) 0.727
CC(C)(O)CC[C@@H](O)[C@](C)(O)[C@H]1CC[C@@]2(O)C3=CC(=O)[C@@H]4C[C@@H](O)[C@@H](O)C[C@]4(C)[C@H]3CC[C@]12C (plate: M 19-20) 0.424
Nc1ccc(S(=O)(=O)Nc2ccc(Cl)nn2)cc1 (plate: M 7-8) -0.0187
CC1CCC(NC(=O)N(CCCl)N=O)CC1 (stereo unspecified) (plate: M 9-10) 0.303
CC1=C2C(O)C(=O)OC3CC4C(C)(C)C(=O)C=C[C@]4(C)C(CC1)[C@]23C (stereo partly specified) (plate: M 13-14) 0.617
Oc1ccc(O)cc1 (plate: M 9-10) 0.704
CCCCC(=O)O[C@]1(C(=O)CO)[C@@H](C)C[C@H]2[C@@H]3CCC4=CC(=O)C=C[C@]4(C)[C@@]3(F)[C@@H](O)C[C@@]21C (plate: M 1-2) 0.381
COc1cc(C(=O)N2CCOCC2)cc(OC)c1OC (plate: M 9-10) 0.286
CC(=O)OCC(=O)[C@@]1(O)CC[C@H]2[C@@H]3CCC4=CC(=O)CC[C@]4(C)[C@H]3C(=O)C[C@@]21C (plate: M 1-2) 0.239
CCCCCCCCCCCCCc1ccco1 (plate: M 21-22) 0.276
OC[C@@H](O)[C@@H](O)[C@H](O)[C@@H](O)CO (plate: M 1-2) 0.665
COc1cc(O)c(C(C)=O)c(OC)c1 (plate: M 15-16) -0.013
CC(c1cc2ccccc2s1)N(O)C(N)=O (stereo unspecified) (plate: M 11-12) 0.64
C[C@@H]1C(=O)O[C@H]2C[C@@]34[C@H]5C[C@@H](C(C)(C)C)[C@]36[C@@H](OC(=O)[C@@H]6O)O[C@@]4(C(=O)O5)[C@]21O (plate: M 17-18) 0.756
O=C(O)c1cc(O)c2c(c1)[C@H]([C@H]1c3cc(C(=O)O)cc(O)c3C(=O)c3c(O[C@@H]4O[C@H](CO)[C@@H](O)[C@H](O)[C@H]4O)cccc31)c1cccc(O[C@@H]3O[C@H](CO)[C@@H](O)[C@H](O)[C@H]3O)c1C2=O (plate: M 9-10) -0.923
CCC(=O)O[C@H]1[C@H](O[C@@H]2[C@@H](C)[C@H](O[C@H]3C[C@@](C)(OC)[C@@H](O)[C@H](C)O3)[C@@H](C)C(=O)O[C@H](CC)[C@@](C)(O)[C@H](O)[C@@H](C)C(=O)[C@H](C)C[C@@]2(C)O)O[C@H](C)C[C@@H]1N(C)C (plate: M 7-8) -0.599
Nc1ncnc2c1ncn2[C@@H]1O[C@H](COP(=O)(O)O)[C@@H](O)[C@H]1O (plate: M 5-6) 0.138
CC1=CC(=O)CC(C)(C)C1(O)/C=C/C(C)=C\C(=O)O (mixture of isomers) [ABSCISICACID(cis,trans;+/-)] (plate: M 19-20) 0.548
NC(=O)c1ncn([C@@H]2O[C@H](CO)[C@@H](O)[C@H]2O)c1N (plate: M 23-24) 0.074
O=c1[nH]c(=O)n([C@H]2C[C@H](O)[C@@H](CO)O2)cc1F (plate: M 7-8) 0.574
Nc1ccc(C(=O)Oc2ccccc2)c(O)c1 (plate: M 1-2) 0.595
CC(=O)O[C@H]1CC[C@]2(C)[C@H]3CC=C4[C@@H]5CC(C)(C)CC[C@]5(C)CC[C@@]4(C)[C@]3(C)CC[C@H]2C1(C)C [beta-AMYRINACETATE] (plate: M 13-14) -0.153
COc1cc(/C=C/C(=O)O)ccc1O (plate: M 17-18) -0.402
NS(=O)(=O)c1cc2c(cc1Cl)NCNS2(=O)=O (plate: M 3-4) -0.208
CN(C)CCc1c[nH]c2ccc(C[C@H]3COC(=O)N3)cc12 (plate: M 9-10) 0.392
CN(C)CCC=C1c2ccccc2C=Cc2ccccc21 (plate: M 7-8) 0.109
C[n+]1cccc(C(=O)[O-])c1 (plate: M 17-18) 0.095
O=S(=O)(O)c1cc(N=C=S)ccc1/C=C/c1ccc(N=C=S)cc1S(=O)(=O)O (plate: M 23-24) -1.3
O=C1c2c(O)cccc2Cc2cccc(O)c21 (plate: M 1-2) 0.161
CCN(CC)CCOC(=O)C1(C2CCCCC2)CCCCC1 (plate: M 1-2) 0.425
O=c1cc(-c2ccccc2)oc2c(O)c(O)ccc12 (plate: M 15-16) -1.08
CN(C)CCCN1c2ccccc2Sc2ccc(C(F)(F)F)cc21 (plate: M 7-8) -0.132
COc1ccc([C@@H]2CC(=O)c3c(O)cc(O)cc3O2)cc1O (plate: M 17-18) 0.548
CCCCCc1c2c(cc(O)c1C(=O)O)OC(=O)c1c(cc(OC)cc1C(=O)CCCC)O2 (plate: M 17-18) -0.123

An excerpt from above in order of heavy-atom count, rising:
Tryptophan fluorescence intensity z-score, inactive:
CCCc1cc(OC)c2c(c1)OCO2 (plate: M 19-20) 0.727
CCCCC(=O)Oc1ccccc1C(=O)O (plate: M 23-24) 0.296
O=C1c2c(O)cccc2Cc2cccc(O)c21 (plate: M 1-2) 0.161
Nc1ccc(S(=O)(=O)Nc2ccc(Cl)nn2)cc1 (plate: M 7-8) -0.0187
CC1=CC(=O)CC(C)(C)C1(O)/C=C/C(C)=C\C(=O)O (mixture of isomers) [ABSCISICACID(cis,trans;+/-)] (plate: M 19-20) 0.548
CC(=O)Nc1c(I)c(NC(C)=O)c(I)c(C(=O)O)c1I (plate: M 13-14) 0.374
OC[C@H]1O[C@@H](OCCc2ccc(O)cc2)[C@H](O)[C@@H](O)[C@@H]1O (plate: M 21-22) 0.592
COc1ccc([C@@H]2CC(=O)c3c(O)cc(O)cc3O2)cc1O (plate: M 17-18) 0.548
Nc1ncnc2c1ncn2[C@@H]1O[C@H](COP(=O)(O)O)[C@@H](O)[C@H]1O (plate: M 5-6) 0.138
CN(C)CCCN1c2ccccc2Sc2ccc(C(F)(F)F)cc21 (plate: M 7-8) -0.132
CC1=C2C(O)C(=O)OC3CC4C(C)(C)C(=O)C=C[C@]4(C)C(CC1)[C@]23C (stereo partly specified) (plate: M 13-14) 0.617
CC(=O)O[C@@H]1C[C@@]2(C)C(CC[C@@H]2C(C)=O)C2CCC3=CC(=O)CC[C@]3(C)C21 (stereo partly specified) (plate: M 19-20) 0.335
CC(=O)OCC(=O)[C@@]1(O)CC[C@H]2[C@@H]3CCC4=CC(=O)CC[C@]4(C)[C@H]3C(=O)C[C@@]21C (plate: M 1-2) 0.239
CC(=O)O[C@H]1CC[C@]2(C)[C@H]3CC=C4[C@@H]5CC(C)(C)CC[C@]5(C)CC[C@@]4(C)[C@]3(C)CC[C@H]2C1(C)C [beta-AMYRINACETATE] (plate: M 13-14) -0.153
CC(=O)O[C@H]1CC[C@]2(C)[C@H]3CC[C@@]4(C)[C@H](c5ccoc5)OC(=O)[C@H]5O[C@]54[C@]3(C)[C@H](OC(C)=O)C[C@H]2C1(C)C [3beta-ACETOXYDEOXODIHYDROGEDUNIN] (plate: M 13-14) 0.269
